Laboratory results: PubChem BioAssay AID493014 (National Center for Advancing Translational Sciences (NCATS), 2011)
The list shows a part of the results. Further columns of the screen follow, without active or inactive calls. Compounds called inactive in the main read-out are mostly missing here. The note in brackets gives the kind of curve behind each potency; many fits are weak.

Assay: qHTS Assay to Find Inhibitors of Chronic Active B-Cell Receptor Signaling
Details: ABC-DLBCL IkBa-CBG/CBR reporter, luminescence ratio (green luciferase fused to IkBa over red control in TMD8 lymphoma cells), 4 h
Procedure, shortened: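 Cell line TMD8 (human ABC DLBCL), stably expressing tet-inducible CBG68-IkBa fusion and CBR; IMDM/0.5% FBS; cpd up to 46 uM; dox induction, 4 h, 37C/5% CO2; dual luminescence; green/red ratio; MG132 control.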

[1] = measured here: CBR red luminescence, cell number
[2] = measured here: IkBa-CBG green luminescence

SMILES | AC50 [1] | AC50 [2]
OCCOCCNc1ncnc2c1cnn2-c1ccccc1 | 12.6 µM [falling, partial curve] | –
O=C(CSc1nnc2n1CCCN2C(=S)Nc1ccc(Cl)cc1)c1ccccc1 | 29.1 µM [falling, single point] | –
CCOC(=O)CSc1nnc(CNc2ccc(Cl)cc2)n1-c1ccccc1 | 8.91 µM [falling, partial curve, poor fit] | –
O=C1C(NS(=O)(=O)c2ccccc2)=C(N2CCN(c3ccc(F)cc3)CC2)C(=O)c2ccccc21 | 3.16 µM [rising, partial curve] | –
CCCCc1ccc(Nc2ncnc3nc[nH]c23)cc1 | 3.66 µM [falling, partial curve, poor fit] | –
CCN1CCN(c2ccc(NC(=O)c3ccc([N+](=O)[O-])o3)cc2Cl)CC1 | 0.141 µM [falling, partial curve, poor fit] | –
NNc1nc(-c2ccccc2)cc(-c2ccc(Br)cc2)n1 | 35.5 µM [falling, single point] | –
Nc1ccc2oc(-c3ccccn3)nc2c1 | – | 20.6 µM [rising, partial curve, poor fit]
Cc1c(NC(=O)c2ccc(Cl)nc2)cccc1-c1nc2cccnc2s1 | 35.5 µM [falling, single point] | –
COc1ccc(-c2nc(-c3ccccc3)c(-c3cc([N+](=O)[O-])ccc3C)[nH]2)cc1O | 11.2 µM [falling, partial curve] | –
CCc1ccccc1OC[C@@H](O)CN[C@H]1CCCc2ccccc21 | 2.59 µM [falling, partial curve, poor fit] | –
COc1ccc(C(=O)OCC(=O)c2cc(OC)ccc2OC)c(OC)c1 | 6.31 µM [rising, partial curve, poor fit] | –
Cc1ccc(CCc2nnc(SCC(=O)Nc3ccccc3Cl)n2-c2ccccc2)o1 | 23.1 µM [falling, single point] | –
Cc1ccc2nc(N3CCN(C(=O)C4CC4)CC3)sc2c1 | 0.794 µM [rising, full curve, poor fit] | –
O=C(O)c1ccc2noc(-c3ccccc3)c2c1 | 0.731 µM [falling, full curve] | –
CC(C)(C)C(=O)Nc1ccc(-c2cc3cc(Cl)ccc3o2)cc1 | 35.5 µM [rising, single point] | –
COc1ccccc1N(C(=O)CNS(=O)(=O)c1ccccc1)C(C(=O)NCc1ccco1)C(C)C (stereo not given) | 5.01 µM [falling, partial curve, poor fit] | –
CCN1C(=O)CC(N2CCN(c3cccc(OC)c3)CC2)C1=O (stereo not given) | 35.5 µM [rising, single point] | –
COc1ccc(N2CCN(C(=O)c3ccc(NS(=O)(=O)c4cccc(F)c4)cc3)CC2)cc1 | 2.06 µM [rising, partial curve, poor fit] | –
CCC(=O)Nc1cccc(NC(=S)NC(=O)c2cccc(C)c2)c1 | 18.4 µM [falling, single point] | –
O=C(Cn1c(-c2ccccn2)nc2ccccc21)N/N=C/c1cccnc1 | 35.5 µM [rising, single point] | –
CS(=O)(=O)Nn1cnc2ccccc2c1=O | 32.6 µM [rising, single point] | –

SMILES | AC50 [1] | AC50 [2]
CCN(C(=O)Nc1cccc(Cl)c1)c1ccccc1 | 11.2 µM [rising, partial curve, poor fit] | –
COc1c2occc2cc2ccc(=O)oc12 | 25.9 µM [rising, partial curve, poor fit] | –
CCOC(=O)c1c(C)[nH]c(C(=O)OCc2ccc(F)cc2)c1C | 2.82 µM [rising, partial curve] | –
Cc1ccc(CCNC(=O)NC(C)(C)C)cc1 | 0.517 µM [rising, full curve, poor fit] | –
O=C(Oc1c(Cl)cc(Cl)c2cccnc12)N1CCCCC1 | – | 4.11 µM [rising, partial curve, poor fit]
CCOC(=O)c1c(OCCO)nn(-c2ccccc2)c1N | 35.5 µM [falling, single point] | –
Cc1ccc(-n2cc(-c3ccccc3)[nH]c2=O)cc1F | 1.16 µM [falling, full curve, poor fit] | –
Brc1ccc(OCc2nc3ccccc3[nH]2)cc1 | 8.91 µM [falling, partial curve, poor fit] | –
CCCC(=O)N(c1ccc2oc(C)c(C(C)=O)c2c1)S(=O)(=O)c1ccc(C(=O)O)cc1 | 3.55 µM [falling, partial curve, poor fit] | –
O=C(NC(=S)NCc1ccc(F)cc1)c1ccccc1 | 1.03 µM [rising, partial curve, poor fit] | –
O=S(=O)(c1cccc(Cl)c1)N1CN(CC2CCCO2)c2nc3ccccc3nc21 (stereo not given) | 8.91 µM [falling, partial curve] | –
CCc1cc2cc(C)ccc2nc1SCC(=O)N1CCN(C(=O)c2ccco2)CC1 | 11.2 µM [falling, single point] | –
COc1ccc(NC(=O)CSc2ncccc2C(=O)OC(C)C)cc1OC | 29.1 µM [falling, single point] | –
CN1/C(=C/C=N/n2cnnc2)C(C)(C)c2ccccc21 | 6.51 µM [falling, single point] | 6.51 µM [rising, partial curve, poor fit]
COC(=O)c1cc(CNC(=O)C2CC(=O)N(c3ccc4c(c3)OCCO4)C2)ccc1OC (stereo not given) | 0.82 µM [rising, partial curve, poor fit] | –
CN(C)S(=O)(=O)c1ccc2[nH]cc(/C=C/c3nc4ccccc4c(=O)n3-c3ccccc3)c2c1 | 0.794 µM [falling, full curve, poor fit] | –
CCc1ccc(NC(=S)N2CCCC(C(F)(F)F)C2)cc1 (stereo not given) | 35.5 µM [rising, single point] | –
CN1C2C=C3C(C#N)=C(N)C(C#N)(C#N)[C@@H](c4ccsc4)[C@@H]3C1CC2 (stereo not given in full) | 29.1 µM [rising, single point] | –
O=C(OCC(=O)c1ccc[nH]1)c1ccccc1 | 11.2 µM [falling, partial curve] | –
CCOC(=O)/C(=N\Nc1ccccc1[N+](=O)[O-])c1csc(Nc2ccccc2)n1 | 1.26 µM [rising, full curve, poor fit] | –
COCCSc1ccccc1C(=O)Nc1cc([N+](=O)[O-])ccc1OC | 12.6 µM [rising, partial curve, poor fit] | –
COc1ccc(-c2noc(-c3ccoc3C)n2)cc1 | 0.316 µM [rising, full curve, poor fit] | –

Arranged by SMILES length (falling): some entries from above.
SMILES | AC50 [1] | AC50 [2]
COC(=O)c1cc(CNC(=O)C2CC(=O)N(c3ccc4c(c3)OCCO4)C2)ccc1OC (stereo not given) | 0.82 µM [rising, partial curve, poor fit] | –
CCc1ccccc1OC[C@@H](O)CN[C@H]1CCCc2ccccc21 | 2.59 µM [falling, partial curve, poor fit] | –
CN1/C(=C/C=N/n2cnnc2)C(C)(C)c2ccccc21 | 6.51 µM [falling, single point] | 6.51 µM [rising, partial curve, poor fit]

Next records follow.

SMILES | AC50 [1] | AC50 [2]
CC1=C(C#N)C(c2cn(-c3ccccc3)nc2-c2cccs2)C(C#N)=C(C)N1 | 31.6 µM [falling, single point] | –
Cn1ncc2cc(NC(N)=S)ccc21 | 2.82 µM [falling, full curve] | –
COc1ccc(CCC(C)Nc2cccc(F)c2)cc1 (stereo not given) | 0.794 µM [rising, full curve, poor fit] | –
CCOc1ccc(S(=O)(=O)N2CCC(C(=O)NCCN3CCOCC3)CC2)cc1C | 5.62 µM [rising, single point] | –
Cc1ccc2c(c1)N=C(c1ccccc1)CC(C(Cl)Cl)=N2 | 7.94 µM [falling, partial curve] | –
CCOc1ccc2oc(C(=O)NCC3CCCO3)c(C)c2c1 (stereo not given) | 31.6 µM [rising, single point] | –
Cc1cc(NC(=O)c2coc(=O)c(Br)c2)ccc1C(C)C | 12.6 µM [falling, partial curve] | –
COc1ccc([C@H]2Oc3cc(O)cc(O)c3C(=O)C2[C@@H]2C(=O)c3c(O)cc(O)cc3O[C@@H]2c2ccc(OC)cc2)cc1 (stereo not given in full) | 17.8 µM [falling, single point] | –
CCOC(=O)c1ccccc1NC(=O)C1CCN(c2ncnc3sc(C)c(C)c23)CC1 | 25.9 µM [rising, single point] | –
COCCNC(=S)Nc1cc(OC)c(NC(=O)c2ccco2)cc1OC | 7.08 µM [rising, partial curve] | –
Cc1ccc2c(CC(=O)Nc3ccc(N4CCN(C)CC4)cc3C)coc2c1 | 35.5 µM [falling, single point] | –
CCOC(=O)C(Cc1ccccc1)C(=O)Nc1cccc2ccccc12 (stereo not given) | 0.651 µM [rising, partial curve, poor fit] | –
O=C1NC(c2cccc(Br)c2)=N/C1=C\c1ccco1 | – | 23.1 µM [rising, partial curve, poor fit]
COc1cccc2sc(NC(=O)c3ccc(Br)s3)nc12 | 0.0517 µM [falling, full curve] | –
CC(C)C(=O)Nc1nc2cc3c(cc2s1)OCO3 | 16.4 µM [falling, single point] | –
COCCn1c(N)c(N(Cc2ccccc2)C(=O)Cc2ccccc2F)c(=O)[nH]c1=O | 15.8 µM [rising, single point] | –
CCN(CC)S(=O)(=O)c1ccc(OC)c(NC(=O)c2ccc3c(c2)OCO3)c1 | 12.6 µM [falling, partial curve, poor fit] | –
CCOC(=O)c1ccccc1NC(=O)COC(=O)C(CCSC)NC(=O)COc1ccccc1 (stereo not given) | 11.6 µM [falling, partial curve] | –
CNc1c([N+](=O)[O-])cnn1-c1ccc(F)cc1 | 35.5 µM [rising, partial curve, poor fit] | –
COC(=O)C1=NN(C(=O)c2ccccc2)C(O)(c2ccc([N+](=O)[O-])cc2)C1 (stereo not given) | 11.2 µM [falling, partial curve, poor fit] | –
